# Results: publication PMC8058344, “ARIH1 signaling promotes anti-tumor immunity by targeting PD-L1 for proteasomal degradation” (Nature Communications, 2021)
# Chains of the proteins cited; added tags and fusions are not shown. Lines headed by an entry give the natural chain unless they say otherwise; changes in a name come on top.
# UniProt Q9NZQ7: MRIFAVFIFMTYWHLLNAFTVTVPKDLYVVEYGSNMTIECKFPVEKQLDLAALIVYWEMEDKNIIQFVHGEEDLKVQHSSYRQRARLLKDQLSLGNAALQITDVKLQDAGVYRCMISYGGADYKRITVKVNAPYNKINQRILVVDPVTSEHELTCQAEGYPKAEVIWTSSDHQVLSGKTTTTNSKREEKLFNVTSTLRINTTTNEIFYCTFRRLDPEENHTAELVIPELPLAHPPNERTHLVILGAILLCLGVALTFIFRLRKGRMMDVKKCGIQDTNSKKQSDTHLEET
# UniProt Q9Y4X5: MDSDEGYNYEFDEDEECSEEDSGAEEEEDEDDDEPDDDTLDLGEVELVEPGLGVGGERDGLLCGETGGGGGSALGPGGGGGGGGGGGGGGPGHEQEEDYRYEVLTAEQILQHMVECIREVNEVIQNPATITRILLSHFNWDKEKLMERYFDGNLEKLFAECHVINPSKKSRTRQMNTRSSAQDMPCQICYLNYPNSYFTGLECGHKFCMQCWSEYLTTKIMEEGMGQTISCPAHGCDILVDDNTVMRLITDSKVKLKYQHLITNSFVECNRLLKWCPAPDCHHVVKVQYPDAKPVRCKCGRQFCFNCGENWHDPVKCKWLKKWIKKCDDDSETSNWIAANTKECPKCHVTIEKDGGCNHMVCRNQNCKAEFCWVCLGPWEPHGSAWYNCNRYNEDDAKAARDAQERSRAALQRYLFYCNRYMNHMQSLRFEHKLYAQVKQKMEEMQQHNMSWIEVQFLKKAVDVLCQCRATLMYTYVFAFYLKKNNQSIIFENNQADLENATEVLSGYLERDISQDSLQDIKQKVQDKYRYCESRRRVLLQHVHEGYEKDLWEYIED
# Target: GST-PD-L1 (human) (UniProt Q9NZQ7)
# Assay: pull-down; purified GST-PD-L1 on glutathione-Sepharose 4B beads (4 °C, 1 h), then HA-ARIH1 from transfected HEK293T cells added (4 °C, 2 h); western blot; only the target purified
substance,measurement,value
HA-ARIH1 (WT) (from UniProt Q9Y4X5 1-557) (enzyme),binding,binds

# Results are given in words; binding and its absence hold for the method and conditions named. In cells and extracts the contact can be indirect. A result given as binding can be weak or reduced; the word gives no strength.
